Results on 1 compound are retold here after ChEMBL document CHEMBL1153076, “Effect of flavonoids on androgen and glucocorticoid receptors based on in vitro reporter gene assay” (Bioorg Med Chem Lett, 2009).

The target of assay [1] is T1, Androgen receptor (Homo sapiens) (UniProt P10275).
T1 sequence (whole entry): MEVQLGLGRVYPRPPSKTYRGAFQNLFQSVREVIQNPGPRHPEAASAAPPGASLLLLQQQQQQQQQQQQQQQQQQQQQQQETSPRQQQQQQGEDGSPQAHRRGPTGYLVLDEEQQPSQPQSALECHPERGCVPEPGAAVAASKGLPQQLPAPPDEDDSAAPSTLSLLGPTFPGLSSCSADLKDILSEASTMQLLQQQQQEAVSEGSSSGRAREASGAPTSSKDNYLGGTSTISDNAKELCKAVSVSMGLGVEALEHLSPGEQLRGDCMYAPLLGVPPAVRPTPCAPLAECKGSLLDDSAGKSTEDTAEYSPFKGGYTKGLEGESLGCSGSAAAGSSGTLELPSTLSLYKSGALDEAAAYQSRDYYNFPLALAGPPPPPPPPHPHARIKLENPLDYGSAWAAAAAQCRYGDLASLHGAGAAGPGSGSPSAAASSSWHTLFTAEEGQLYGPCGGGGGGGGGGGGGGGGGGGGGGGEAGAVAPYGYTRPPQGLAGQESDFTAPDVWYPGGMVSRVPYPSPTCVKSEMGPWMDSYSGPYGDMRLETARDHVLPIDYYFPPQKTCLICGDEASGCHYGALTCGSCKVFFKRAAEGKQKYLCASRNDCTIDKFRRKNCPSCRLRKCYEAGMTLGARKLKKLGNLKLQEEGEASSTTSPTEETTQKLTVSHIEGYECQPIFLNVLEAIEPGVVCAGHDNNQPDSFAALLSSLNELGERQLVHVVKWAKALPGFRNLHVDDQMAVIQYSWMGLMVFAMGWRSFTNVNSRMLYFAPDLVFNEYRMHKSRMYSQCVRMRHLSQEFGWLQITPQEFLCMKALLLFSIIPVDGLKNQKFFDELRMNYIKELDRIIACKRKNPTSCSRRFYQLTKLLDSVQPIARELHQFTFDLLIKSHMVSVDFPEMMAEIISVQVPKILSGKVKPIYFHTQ
Conditions: MDA-kb2.

The target of assay [2] is T2, Glucocorticoid receptor (Homo sapiens) (UniProt P04150).
T2 sequence (whole entry): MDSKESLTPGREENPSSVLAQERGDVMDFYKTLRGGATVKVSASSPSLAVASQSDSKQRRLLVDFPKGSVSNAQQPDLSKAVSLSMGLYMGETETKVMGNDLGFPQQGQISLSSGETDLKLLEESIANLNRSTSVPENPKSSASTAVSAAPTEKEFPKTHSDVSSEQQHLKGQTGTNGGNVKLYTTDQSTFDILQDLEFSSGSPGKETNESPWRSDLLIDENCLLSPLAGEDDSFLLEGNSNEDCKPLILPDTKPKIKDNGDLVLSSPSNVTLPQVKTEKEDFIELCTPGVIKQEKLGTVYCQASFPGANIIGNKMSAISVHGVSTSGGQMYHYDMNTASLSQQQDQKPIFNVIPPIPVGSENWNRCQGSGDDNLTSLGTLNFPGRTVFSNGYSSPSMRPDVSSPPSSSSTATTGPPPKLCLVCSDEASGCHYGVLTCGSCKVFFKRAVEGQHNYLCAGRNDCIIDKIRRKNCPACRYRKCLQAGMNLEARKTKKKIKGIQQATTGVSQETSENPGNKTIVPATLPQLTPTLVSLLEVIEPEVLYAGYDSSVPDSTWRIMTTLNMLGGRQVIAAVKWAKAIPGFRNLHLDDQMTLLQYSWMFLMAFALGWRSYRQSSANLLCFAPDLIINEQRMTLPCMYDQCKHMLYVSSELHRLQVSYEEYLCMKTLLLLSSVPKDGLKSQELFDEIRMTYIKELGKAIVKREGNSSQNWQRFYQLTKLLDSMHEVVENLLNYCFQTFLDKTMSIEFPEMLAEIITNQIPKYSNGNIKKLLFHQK
The settings on record: MDA-kb2.

Structures are written as SMILES. The source made the active and inactive calls. No cut-off for these calls is given here.

For `O=C1CC(c2ccccc2)Oc2cc(O)ccc21` (configuration not stated), the EC150 entry in assay [1] and in assay [2] was “inactive” throughout.
